Results: publication PMC4398414
Results are given in words; binding and its absence hold for the method and conditions named. Binding seen in cells or lysates may run through a third protein. Sequences can lack the tags named with a protein.

Protein sequences, listed by entry. Tags and fused reporters are not part of them.
UniProt P08659: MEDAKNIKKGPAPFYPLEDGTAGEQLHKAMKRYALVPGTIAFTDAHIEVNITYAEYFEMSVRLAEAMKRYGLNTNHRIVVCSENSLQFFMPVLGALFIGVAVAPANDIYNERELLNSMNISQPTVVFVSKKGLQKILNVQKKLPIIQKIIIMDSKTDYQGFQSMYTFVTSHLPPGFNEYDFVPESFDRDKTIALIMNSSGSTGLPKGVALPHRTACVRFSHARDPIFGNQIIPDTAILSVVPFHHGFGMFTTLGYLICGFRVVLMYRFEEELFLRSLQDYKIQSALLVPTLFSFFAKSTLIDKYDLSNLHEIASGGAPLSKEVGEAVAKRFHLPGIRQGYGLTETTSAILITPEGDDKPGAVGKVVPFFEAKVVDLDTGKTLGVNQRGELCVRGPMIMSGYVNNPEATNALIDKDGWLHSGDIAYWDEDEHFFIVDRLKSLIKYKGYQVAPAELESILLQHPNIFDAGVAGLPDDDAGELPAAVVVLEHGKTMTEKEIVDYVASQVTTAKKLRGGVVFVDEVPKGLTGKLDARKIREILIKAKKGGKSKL

Target: T1, cytoplasmic domain of UNC-40 fused to GST (C. elegans) (UniProt G5EF96)
T1 sequence: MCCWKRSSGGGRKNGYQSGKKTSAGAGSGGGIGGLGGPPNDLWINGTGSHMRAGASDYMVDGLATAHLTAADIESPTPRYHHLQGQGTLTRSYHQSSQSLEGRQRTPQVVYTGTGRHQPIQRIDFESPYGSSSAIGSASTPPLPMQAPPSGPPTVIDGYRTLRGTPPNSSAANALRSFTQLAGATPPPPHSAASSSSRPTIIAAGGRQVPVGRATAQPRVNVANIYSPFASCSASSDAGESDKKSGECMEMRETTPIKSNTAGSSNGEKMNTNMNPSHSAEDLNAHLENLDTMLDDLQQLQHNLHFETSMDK
Assay: pull-down; GST fusion coupled to Glutathione-Sepharose; biotin-labelled in vitro translated protein; 16 hours at 4°C in PBS with 0.1% Triton X-100, 1% BSA and protease inhibitors; 3 washes; detected with Strepavidin-Alkaline Phosphatase; only the target purified

binding: no binding
Substance: luciferase (from UniProt P08659 1-550)
